Results from publication PMC9656482, “In Vitro and In Vivo Biological Activity of Ruthenium 1,10-Phenanthroline-5,6-dione Arene Complexes” (International Journal of Molecular Sciences, 2022).

Test system: A2780 cells
Experiment: Complexes internalization by ICP-AES
Format: cell-based, human
Settings: A2780, 10 μM, 3 h and 6 h

Cc1ccc(C(C)C)cc1.O=C1C(=O)c2cccnc2-c2ncccc21.O=S(=O)([O-])C(F)(F)F.[Cl][Ru+] [JHOR10, [Ru{p-C6H4(Me)(iPr)}{(Dione)Cl][CF3SO3]] was tested, and the “internalization (percentage of ruthenium inside cells)” value was “lower internalization rate”.
With Cc1ccc(C(C)C)cc1.F[P-](F)(F)(F)(F)F.O=C1C(=O)c2cccnc2-c2ncccc21.[Cl][Ru+] [JHOR11] the “internalization (percentage of ruthenium inside cells)” value was “higher internalization”.
